In PMC9103437:
These are yes or no findings as the source states them, for the method shown. In cells and extracts the contact can be indirect. Some entries that bind do so weakly or less than the wild type.

Protein sequences, listed by entry. Tags and fused reporters are not part of them.
UniProt Q08775: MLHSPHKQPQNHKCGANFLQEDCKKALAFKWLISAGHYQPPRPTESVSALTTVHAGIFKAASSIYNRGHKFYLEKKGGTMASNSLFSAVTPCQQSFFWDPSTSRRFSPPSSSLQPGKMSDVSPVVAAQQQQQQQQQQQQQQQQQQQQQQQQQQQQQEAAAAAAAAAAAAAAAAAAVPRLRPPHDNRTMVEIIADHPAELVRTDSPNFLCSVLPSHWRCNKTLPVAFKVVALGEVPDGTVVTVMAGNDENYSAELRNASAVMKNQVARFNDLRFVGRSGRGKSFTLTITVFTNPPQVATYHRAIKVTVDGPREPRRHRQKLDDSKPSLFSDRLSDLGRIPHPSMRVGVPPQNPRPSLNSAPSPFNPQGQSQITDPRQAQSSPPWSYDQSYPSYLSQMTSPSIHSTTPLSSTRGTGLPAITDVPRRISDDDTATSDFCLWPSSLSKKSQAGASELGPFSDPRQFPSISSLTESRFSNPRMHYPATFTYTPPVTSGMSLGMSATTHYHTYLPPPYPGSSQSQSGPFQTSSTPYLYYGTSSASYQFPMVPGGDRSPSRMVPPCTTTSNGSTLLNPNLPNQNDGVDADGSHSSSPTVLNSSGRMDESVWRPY

Target: endogenous Runx2 (mouse (endogenous in primary osteoblasts)) (UniProt Q08775)
Test: co-IP; primary osteoblast precursor cells cultured four days in OGM; lysates immunoprecipitated with anti-Runx2, western blot with anti-Lmx1b or anti-Runx2; endogenous proteins

- binding: binds
B1: endogenous Lmx1b (protein, UniProt O88609 1-395)
chain: MDIATGPESLERCFPRGQTDCAKMLDGIKMEEHALRPGPATLGVLLGSDCPHPAVCEGCQRPISDRFLMRVNESSWHEECLQCAACQQALTTSCYFRDRKLYCKQDYQQLFAAKCSGCMEKIAPTEFVMRALECVYHLGCFCCCVCERQLRKGDEFVLKEGQLLCKGDYEKEKDLLSSVSPDESDSVKSEDEDGDMKPAKGQGSQSKGSGDDGKDPRRPKRPRTILTTQQRRAFKASFEVSSKPCRKVRETLAAETGLSVRVVQVWFQNQRAKMKKLARRHQQQQEQQNSQRLGQEVLSSRMEGMMASYTPLAPPQQQIVAMEQSPYGSSDPFQQGLTPPQMPGNDSIFHDIDSDTSLTSLSDCFLGSSDVGSLQARVGNPIDRLYSMQSSYFAS
